In PMC4896102, “Biosynthesis of the polymeric gel-forming mucin MUC5B” (American Journal of Physiology - Lung Cellular and …, 2016):
These are yes or no findings as the source states them, for the method shown. Some entries that bind do so weakly or less than the wild type.

Protein sequences, listed by entry. Tags and fused reporters are not part of them. Residues count along the entry.
UniProt Q9HC84, residues 26-5762: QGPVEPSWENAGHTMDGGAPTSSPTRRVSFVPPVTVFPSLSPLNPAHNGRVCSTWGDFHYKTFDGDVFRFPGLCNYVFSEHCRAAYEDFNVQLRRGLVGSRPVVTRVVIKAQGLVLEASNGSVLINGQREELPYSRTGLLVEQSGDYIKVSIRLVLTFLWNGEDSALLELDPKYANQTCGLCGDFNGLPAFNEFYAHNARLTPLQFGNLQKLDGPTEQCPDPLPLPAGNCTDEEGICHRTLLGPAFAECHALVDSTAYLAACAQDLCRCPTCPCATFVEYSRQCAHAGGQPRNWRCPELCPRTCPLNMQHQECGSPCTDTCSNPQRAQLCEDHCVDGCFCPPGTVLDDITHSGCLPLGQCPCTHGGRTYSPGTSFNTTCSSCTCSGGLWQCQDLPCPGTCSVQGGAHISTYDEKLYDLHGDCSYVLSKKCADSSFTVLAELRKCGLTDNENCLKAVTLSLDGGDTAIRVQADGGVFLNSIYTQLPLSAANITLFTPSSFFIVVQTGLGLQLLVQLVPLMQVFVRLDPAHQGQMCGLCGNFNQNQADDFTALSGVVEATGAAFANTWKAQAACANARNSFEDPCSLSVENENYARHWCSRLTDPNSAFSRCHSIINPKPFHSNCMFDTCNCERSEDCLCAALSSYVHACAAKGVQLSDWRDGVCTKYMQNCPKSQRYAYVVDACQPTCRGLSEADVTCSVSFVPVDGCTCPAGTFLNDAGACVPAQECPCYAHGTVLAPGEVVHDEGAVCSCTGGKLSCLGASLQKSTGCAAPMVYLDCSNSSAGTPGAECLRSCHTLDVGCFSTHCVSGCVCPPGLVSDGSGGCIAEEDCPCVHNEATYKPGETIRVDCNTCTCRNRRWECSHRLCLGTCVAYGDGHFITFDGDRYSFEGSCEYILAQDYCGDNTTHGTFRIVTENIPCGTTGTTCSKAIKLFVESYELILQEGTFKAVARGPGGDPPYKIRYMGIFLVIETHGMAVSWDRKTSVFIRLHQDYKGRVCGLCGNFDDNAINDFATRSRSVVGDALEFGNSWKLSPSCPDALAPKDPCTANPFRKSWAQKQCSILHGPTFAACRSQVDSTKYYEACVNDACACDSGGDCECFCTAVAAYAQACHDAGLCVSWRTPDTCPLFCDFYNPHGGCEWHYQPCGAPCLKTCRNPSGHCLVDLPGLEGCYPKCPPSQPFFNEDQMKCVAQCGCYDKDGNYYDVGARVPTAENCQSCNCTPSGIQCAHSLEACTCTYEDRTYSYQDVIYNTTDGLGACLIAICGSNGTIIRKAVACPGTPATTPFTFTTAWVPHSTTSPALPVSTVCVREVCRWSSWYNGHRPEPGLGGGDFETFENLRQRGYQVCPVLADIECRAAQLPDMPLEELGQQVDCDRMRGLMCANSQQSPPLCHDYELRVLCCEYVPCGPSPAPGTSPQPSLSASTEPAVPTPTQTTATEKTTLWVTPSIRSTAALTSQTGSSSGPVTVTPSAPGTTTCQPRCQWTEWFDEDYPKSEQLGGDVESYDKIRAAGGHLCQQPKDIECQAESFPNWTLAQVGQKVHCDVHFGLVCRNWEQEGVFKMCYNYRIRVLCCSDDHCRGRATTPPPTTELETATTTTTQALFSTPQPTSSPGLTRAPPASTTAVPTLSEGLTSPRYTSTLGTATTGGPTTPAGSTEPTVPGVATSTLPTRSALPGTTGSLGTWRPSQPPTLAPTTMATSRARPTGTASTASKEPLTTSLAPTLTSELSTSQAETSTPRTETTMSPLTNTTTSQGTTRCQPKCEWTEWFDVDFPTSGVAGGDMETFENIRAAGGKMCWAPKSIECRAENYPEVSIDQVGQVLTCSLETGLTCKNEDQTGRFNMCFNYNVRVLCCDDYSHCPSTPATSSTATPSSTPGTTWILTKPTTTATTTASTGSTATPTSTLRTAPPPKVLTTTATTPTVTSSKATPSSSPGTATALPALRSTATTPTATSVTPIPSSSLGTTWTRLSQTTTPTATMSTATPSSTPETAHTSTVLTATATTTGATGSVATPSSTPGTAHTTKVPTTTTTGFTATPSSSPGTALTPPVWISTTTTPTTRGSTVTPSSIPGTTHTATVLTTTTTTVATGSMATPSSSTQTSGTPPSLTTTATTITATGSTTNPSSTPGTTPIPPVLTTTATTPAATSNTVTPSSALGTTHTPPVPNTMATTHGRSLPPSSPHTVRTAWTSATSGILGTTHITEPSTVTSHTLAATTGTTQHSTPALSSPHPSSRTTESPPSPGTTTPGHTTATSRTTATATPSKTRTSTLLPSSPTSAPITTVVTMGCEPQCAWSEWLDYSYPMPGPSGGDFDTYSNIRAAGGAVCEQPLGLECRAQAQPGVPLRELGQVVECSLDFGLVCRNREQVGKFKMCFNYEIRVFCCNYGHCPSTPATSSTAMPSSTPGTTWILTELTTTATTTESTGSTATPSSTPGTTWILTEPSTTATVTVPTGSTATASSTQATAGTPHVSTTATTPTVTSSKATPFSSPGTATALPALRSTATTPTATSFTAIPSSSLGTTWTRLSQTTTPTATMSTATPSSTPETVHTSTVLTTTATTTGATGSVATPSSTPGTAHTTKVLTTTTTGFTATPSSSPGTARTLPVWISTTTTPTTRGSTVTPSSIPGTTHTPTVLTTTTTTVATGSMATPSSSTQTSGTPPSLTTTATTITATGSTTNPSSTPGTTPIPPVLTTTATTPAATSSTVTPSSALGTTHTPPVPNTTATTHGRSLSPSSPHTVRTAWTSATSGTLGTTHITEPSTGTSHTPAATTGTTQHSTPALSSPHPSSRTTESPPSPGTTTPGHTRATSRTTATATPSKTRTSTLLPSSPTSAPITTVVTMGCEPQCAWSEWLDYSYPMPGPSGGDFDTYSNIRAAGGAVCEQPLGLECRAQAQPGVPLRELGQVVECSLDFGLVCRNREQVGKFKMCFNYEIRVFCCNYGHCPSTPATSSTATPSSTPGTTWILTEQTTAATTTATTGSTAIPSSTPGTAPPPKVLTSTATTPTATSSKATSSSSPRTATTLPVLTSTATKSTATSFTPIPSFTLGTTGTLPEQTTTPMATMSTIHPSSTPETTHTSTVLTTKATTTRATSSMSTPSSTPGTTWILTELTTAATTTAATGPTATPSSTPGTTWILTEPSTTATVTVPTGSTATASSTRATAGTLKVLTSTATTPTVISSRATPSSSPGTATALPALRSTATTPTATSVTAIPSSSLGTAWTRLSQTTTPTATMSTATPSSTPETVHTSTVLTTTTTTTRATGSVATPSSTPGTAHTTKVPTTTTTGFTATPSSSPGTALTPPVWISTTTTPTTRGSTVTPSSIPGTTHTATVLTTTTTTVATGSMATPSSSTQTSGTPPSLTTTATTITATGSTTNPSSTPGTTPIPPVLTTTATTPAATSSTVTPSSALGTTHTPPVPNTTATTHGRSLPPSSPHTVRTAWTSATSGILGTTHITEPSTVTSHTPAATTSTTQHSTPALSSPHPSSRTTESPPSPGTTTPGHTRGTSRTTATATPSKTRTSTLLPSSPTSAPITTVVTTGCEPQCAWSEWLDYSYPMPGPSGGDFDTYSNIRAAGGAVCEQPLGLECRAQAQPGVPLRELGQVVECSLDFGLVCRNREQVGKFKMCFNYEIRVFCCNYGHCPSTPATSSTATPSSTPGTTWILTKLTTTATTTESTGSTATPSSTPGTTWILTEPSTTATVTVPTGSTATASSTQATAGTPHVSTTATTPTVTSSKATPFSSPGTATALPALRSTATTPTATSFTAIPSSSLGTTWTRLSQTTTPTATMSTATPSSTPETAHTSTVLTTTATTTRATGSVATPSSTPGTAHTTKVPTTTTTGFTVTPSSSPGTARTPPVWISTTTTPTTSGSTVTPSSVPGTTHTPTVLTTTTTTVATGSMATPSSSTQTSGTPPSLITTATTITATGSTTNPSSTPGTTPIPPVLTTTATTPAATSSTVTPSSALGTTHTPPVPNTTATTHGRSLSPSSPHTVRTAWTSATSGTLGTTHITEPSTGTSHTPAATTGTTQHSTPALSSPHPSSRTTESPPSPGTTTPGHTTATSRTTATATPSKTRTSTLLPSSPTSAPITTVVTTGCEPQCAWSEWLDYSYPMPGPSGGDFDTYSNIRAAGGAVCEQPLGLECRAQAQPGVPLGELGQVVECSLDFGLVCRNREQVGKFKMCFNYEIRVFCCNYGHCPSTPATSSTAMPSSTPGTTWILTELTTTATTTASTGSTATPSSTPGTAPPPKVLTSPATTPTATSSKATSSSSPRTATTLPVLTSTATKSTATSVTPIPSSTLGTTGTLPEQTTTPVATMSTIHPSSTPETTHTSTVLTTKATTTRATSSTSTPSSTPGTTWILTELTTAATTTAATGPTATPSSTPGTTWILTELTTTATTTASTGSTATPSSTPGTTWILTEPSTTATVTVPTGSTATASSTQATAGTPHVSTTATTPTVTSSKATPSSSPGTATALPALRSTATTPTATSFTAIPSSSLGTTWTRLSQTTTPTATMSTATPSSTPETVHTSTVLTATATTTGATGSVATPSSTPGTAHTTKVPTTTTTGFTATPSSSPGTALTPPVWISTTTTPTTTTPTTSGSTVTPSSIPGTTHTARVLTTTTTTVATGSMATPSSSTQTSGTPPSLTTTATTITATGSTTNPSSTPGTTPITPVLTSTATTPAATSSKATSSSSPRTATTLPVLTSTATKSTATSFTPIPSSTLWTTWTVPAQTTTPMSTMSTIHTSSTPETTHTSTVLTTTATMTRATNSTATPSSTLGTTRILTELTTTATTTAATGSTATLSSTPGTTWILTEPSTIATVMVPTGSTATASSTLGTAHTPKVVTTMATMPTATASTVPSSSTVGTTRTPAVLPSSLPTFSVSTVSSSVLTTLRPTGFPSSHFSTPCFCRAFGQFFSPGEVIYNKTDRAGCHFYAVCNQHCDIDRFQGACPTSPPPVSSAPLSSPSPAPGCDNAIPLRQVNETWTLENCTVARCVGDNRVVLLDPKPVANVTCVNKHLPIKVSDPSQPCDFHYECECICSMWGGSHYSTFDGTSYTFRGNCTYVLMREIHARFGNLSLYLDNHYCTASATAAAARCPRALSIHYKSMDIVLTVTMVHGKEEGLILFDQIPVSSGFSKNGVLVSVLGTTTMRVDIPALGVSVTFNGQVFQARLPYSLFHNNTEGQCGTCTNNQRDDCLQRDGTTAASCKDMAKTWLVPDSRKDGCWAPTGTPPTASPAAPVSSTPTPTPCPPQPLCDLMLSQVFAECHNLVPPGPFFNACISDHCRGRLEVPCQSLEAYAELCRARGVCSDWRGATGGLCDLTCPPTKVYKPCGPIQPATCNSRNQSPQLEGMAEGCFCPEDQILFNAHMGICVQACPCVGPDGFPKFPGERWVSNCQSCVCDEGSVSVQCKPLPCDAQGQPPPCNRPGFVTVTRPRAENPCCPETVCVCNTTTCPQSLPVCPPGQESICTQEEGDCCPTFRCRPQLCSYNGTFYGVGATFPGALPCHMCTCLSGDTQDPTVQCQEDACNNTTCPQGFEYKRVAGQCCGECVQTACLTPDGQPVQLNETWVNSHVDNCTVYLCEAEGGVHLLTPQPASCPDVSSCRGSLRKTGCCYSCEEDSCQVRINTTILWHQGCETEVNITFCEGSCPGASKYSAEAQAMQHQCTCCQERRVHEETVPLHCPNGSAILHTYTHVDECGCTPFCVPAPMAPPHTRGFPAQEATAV

Key:
[1] = biological target: O-glycosylated polymeric MUC5B (human (endogenous in primary human bronchial epithelial cells)) (UniProt Q9HC84); test: agarose gel electrophoresis, unreduced versus reduced, with Western blot; HBEC lysates in 6 M GdmCl, unreduced or reduced with 10 mM DTT, 0.7% agarose with 0.1% SDS, blots probed with LUM5B-13 or MAN-5BI
[2] = biological target: non-O-glycosylated MUC5B (native polypeptide monomer and dimer) (human (endogenous in primary human bronchial epithelial cells)) (UniProt Q9HC84); test: pulse-chase, immunoprecipitation and agarose gel electrophoresis; HBECs pulse labeled 15 min with [35S]methionine, chased 0-120 min; lysates immunoprecipitated with LUM5B-13, agarose gel electrophoresis, phosphoimaging
[3] = biological target: non-O-glycosylated MUC5B (native polypeptide monomer and dimer) (human (endogenous in primary human bronchial epithelial cells)) (UniProt Q9HC84); test: agarose gel electrophoresis, unreduced versus reduced, with Western blot; HBEC lysates in 6 M GdmCl, unreduced or reduced with 10 mM DTT, 0.7% agarose with 0.1% SDS, blots probed with LUM5B-13 or MAN-5BI

binding [1]	binding [2]	binding [3]	Substance
binds	–	–	O-glycosylated polymeric MUC5B (from UniProt Q9HC84 26-5762)
–	binds	binds	non-O-glycosylated MUC5B (native polypeptide monomer and dimer) (from UniProt Q9HC84 26-5762)
